From PubChem BioAssay AID488837 (National Center for Advancing Translational Sciences (NCATS), 2010)
Hit rate of the full screen: of about 330,000 compounds, about 20 (0.006%) were called active. This list was built around the results that the source calls inconclusive (neither active nor inactive); the mix of calls is not that of the screen. Calls come from the whole dose curve; as a rule, active = well fitted inhibition curve with a large enough effect; inconclusive = small, poorly fitted or top-dose-only effect, or effect the other way; inactive = flat fitted curve, though single readings scatter. Potencies beside an inconclusive call are fits to weak or partial responses and may not hold up.
Potency is the fitted concentration of half-maximal effect.

The chains behind the UniProt entries cited, without tags or fusion partners. Where a name states a change or a piece, a line headed by the entry shows the natural chain unless it says otherwise.
UniProt O00167: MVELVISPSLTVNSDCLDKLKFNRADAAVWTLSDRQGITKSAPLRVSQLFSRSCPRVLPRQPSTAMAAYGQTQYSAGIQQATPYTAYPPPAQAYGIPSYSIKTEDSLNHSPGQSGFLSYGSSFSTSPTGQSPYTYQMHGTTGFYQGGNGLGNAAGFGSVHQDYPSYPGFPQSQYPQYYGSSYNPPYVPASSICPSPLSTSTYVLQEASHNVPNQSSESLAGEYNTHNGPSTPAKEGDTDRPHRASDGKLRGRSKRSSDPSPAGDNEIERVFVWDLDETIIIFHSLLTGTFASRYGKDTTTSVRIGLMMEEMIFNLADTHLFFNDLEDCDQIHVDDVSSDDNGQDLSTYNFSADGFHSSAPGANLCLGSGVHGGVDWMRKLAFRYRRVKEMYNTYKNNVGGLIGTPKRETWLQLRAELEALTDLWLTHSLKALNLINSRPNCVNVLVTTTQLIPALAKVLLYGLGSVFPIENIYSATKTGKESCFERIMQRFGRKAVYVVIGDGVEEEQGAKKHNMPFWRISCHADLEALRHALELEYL

These compounds were tested against Protein phosphatase EYA2 (Homo sapiens) (UniProt O00167) (assay: qHTS Assay for Inhibitors of the Phosphatase Activity of Eya2). Details: recombinant Eya2, OMFP fluorescence dephosphorylation (OMFP is methylfluorescein phosphate).
Outline: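 Eya2 protein (added as 0.2 uM solution) was preincubated with compound for 10 min at ambient temperature in 50 mM HEPES pH 7.5, 50 mM NaCl, 5 uM MgCl2, 0.05% BSA, 1 mM DTT. OMFP (added at 50 uM) then reacted 10 min; fluorescence read at 485/525 nm.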
With `Cc1ccc(-n2nc(C)c3c(C)onc3c2=O)cc1` the Potency was inconclusive: 100 µM [inhibitor, single point].
For `O=C(CCC(=O)N1CCOc2ccccc21)NCCc1ccccc1`, the Potency was inconclusive: 28.2 µM [inhibitor, single point].
With `Cc1ccc(NC2CCCN(C(=O)c3ccnc(Cl)c3)C2)cc1C` (centres undefined) the Potency was “inactive”.
For `CN1CCN(C2=CC3=CC(=C(C#N)C#N)CCC3CC2)CC1` (centres undefined), the Potency was inconclusive: 5.01 µM [activator, full curve].
With `Cc1cc(/C=c2\sc3nc4ccccc4n3c2=O)c(C)n1-c1ccc(C(=O)O)cc1` the Potency was inconclusive: 1260 µM [inhibitor, single point].
`c1cc2ccc3ccc(-n4cnnn4)c4ccc(c1)c2c34` was tested, and the Potency was “inactive”.
In the case of `COc1ccc(N2CCC(CNC(=O)Nc3ccccc3)C2)cc1` (centres undefined), the Potency is reported as “inactive”.
For `CC(=O)c1ccc(NC(=O)CNCC(c2ccccc2)N(C)C)cc1` (centres undefined), the Potency was inconclusive: 79.4 µM [inhibitor, single point].
`Cc1ccc(C23CC4CC(CC(C(=O)NC(C(=O)O)C(C)C)(C4)C2)C3)cc1` (centres undefined) was tested, and the Potency was inconclusive: 17.8 µM [inhibitor, single point].
`CCc1ccc(-c2nc(CS(=O)CC(=O)O)c(C)o2)cc1` (centres undefined) was tested, and the Potency was “inactive”.
For `O=C(COC(=O)c1ccc2ccccc2c1O)NCc1ccccc1`, the Potency was inconclusive: 25.1 µM [inhibitor, single point].
With `CNC(=O)c1cc2ccc(OC)cc2oc1=O` the Potency was “inactive”.
In the case of `Cc1ccc(C(=O)NNC2=Nc3cc([N+](=O)[O-])ccc3OC2)cc1`, the Potency is reported as inconclusive: 100 µM [inhibitor, single point].
`COc1cc(/C=N/n2c(-c3cc(C)[nH]n3)n[nH]c2=S)ccc1O` was tested, and the Potency was inconclusive: 100 µM [inhibitor, partial curve].
With `O=c1c2ccccc2nc(/C=C/c2ccc(Br)cc2)n1CCCO` the Potency was “inactive”.
`O=C(Cn1c(=O)c2c(ncn2Cc2ccccc2)n(Cc2ccccc2)c1=O)N1CCc2ccccc21` was tested, and the Potency was inconclusive: 14.1 µM [inhibitor, single point].
In the case of `CCOC(=O)c1sc(NC(=O)CC(C)c2ccccc2)nc1C` (centres undefined), the Potency is reported as “inactive”.
In the case of `COc1ccc(/C=N/n2c(C)nc3sc(C)c(C)c3c2=O)cc1`, the Potency is reported as inconclusive: 100 µM [inhibitor, single point].
`O=C(c1ccc2ccccc2c1)N1CCN(Cc2ccccc2)CC1` was tested, and the Potency was inconclusive: 89.1 µM [inhibitor, single point].
In the case of `CCOc1ccc(CO[C@@H]2O[C@H](CO)[C@@H](O)[C@H](O)[C@H]2NC(C)=O)cc1OC`, the Potency is reported as inconclusive: 100 µM [inhibitor, single point].
For `CN(C)c1ccc(CNCCC(Cc2ccccc2)c2ccco2)cc1` (centres undefined), the Potency was inconclusive: 251 µM [inhibitor, partial curve, poor fit].
`Cc1ccc(NC(=O)CCCn2nc(C)c3c(C)n(-c4ccccc4)nc3c2=O)c(Cl)c1` was tested, and the Potency was inconclusive: 70.8 µM [inhibitor, single point].
In the case of `CCCCN(CCCC)C(=O)c1c[nH]c2ccc(S(=O)(=O)Nc3cccc(Cl)c3C)cc2c1=O`, the Potency is reported as “inactive”.
`CCC1=C(OC(=O)N(CC)CC)N2C(=O)OC(=NCc3ccccc3)[C@]2(C)[C@H]2C1=CC[C@H]1C(=O)N(CC)C(=O)[C@H]12` was tested, and the Potency was “inactive”.
For `CCS(=O)(=O)Nc1cc(OC)c(OC)cc1Cc1nccc2cc(OC)c(OC)cc12`, the Potency was inconclusive: 200 µM [activator, partial curve].
In the case of `COc1cc(C=O)ccc1Oc1ccc(S(=O)(=O)N2CCOCC2)cc1[N+](=O)[O-]`, the Potency is reported as inconclusive: 28.2 µM [inhibitor, partial curve, poor fit].
With `COc1ccc(C(c2nnnn2CS(=O)(=O)c2ccc(C)cc2)N2CCN(c3ncccn3)CC2)cc1` (centres undefined) the Potency was “inactive”.
For `OCC1(CCc2ccccc2)CCCN(C/C=C/c2ccccc2)C1` (centres undefined), the Potency was inconclusive: 28.2 µM [inhibitor, partial curve, poor fit].
`CCCCN(C)C(=O)CCC(=O)NNc1nc2ccccc2c2nc(C)nn12` was tested, and the Potency was “inactive”.
In the case of `O=C(N/N=C/c1ccc(O)cc1)c1cc(C23CC4CC(CC(C4)C2)C3)[nH]n1`, the Potency is reported as inconclusive: 89.1 µM [inhibitor, single point].
For `COc1ccc(-c2cn(-c3cccc(C)c3)c(=O)[nH]2)cc1OC`, the Potency was inconclusive: 631 µM [inhibitor, single point].
For `O=C(N/N=C/c1cccc([N+](=O)[O-])c1)c1cccc(Br)c1`, the Potency was inconclusive: 25.1 µM [inhibitor, single point].
With `COc1ccc(C(CCNCc2ccc(N(C)C)cc2)c2ccccc2OC)cc1` (centres undefined) the Potency was inconclusive: 100 µM [inhibitor, single point].
In the case of `COc1ccc(C2C(C(=O)/C=C/c3ccco3)=C(O)C(=O)N2CCN2CCOCC2)cc1` (centres undefined), the Potency is reported as “inactive”.
For `Cn1c(=O)c2cc(S(=O)(=O)NCCC(=O)N3CC=C(c4ccccc4)CC3)ccc2n(C)c1=O`, the Potency was “inactive”.
`CCc1nc(NCc2ccco2)c2oc3ccccc3c2n1` was tested, and the Potency was inconclusive: 20 µM [inhibitor, single point].
In the case of `CC(C)=CCN1CCN(Cc2cccn2-c2nccs2)CC1CCO` (centres undefined), the Potency is reported as inconclusive: 100 µM [inhibitor, single point].
With `Cn1cccc1C(=O)OCC(=O)c1c[nH]c2ccccc12` the Potency was inconclusive: 79.4 µM [inhibitor, partial curve].
With `CCOc1nc(CC(C)C)c2c(c1C#N)CC(C)(C)OC2` the Potency was inconclusive: 89.1 µM [inhibitor, partial curve, poor fit].
`Cc1ccc(NC(=O)N(CCC#N)Cc2ccccc2)cc1` was tested, and the Potency was inconclusive: 112 µM [inhibitor, single point].
In the case of `CC(C)(CO)NCc1ccccc1OCC(=O)Nc1ccccc1`, the Potency is reported as “inactive”.
For `CCOc1ccc(Nc2ccnc3cc(Cl)ccc23)cc1`, the Potency was inconclusive: 28.2 µM [inhibitor, partial curve, poor fit].
With `Cc1cc(C)cc(N2C(=O)CC(Sc3ccccc3C(=O)O)C2=O)c1` (centres undefined) the Potency was inconclusive: 112 µM [inhibitor, single point].
In the case of `N/C(=N\OC(=O)COc1ccc(Br)cc1Cl)c1ccncc1`, the Potency is reported as “inactive”.
